No constants are given. Whether binding was seen depends on the method and setting. Binding seen in cells or lysates may run through a third protein. Some results given as binding are weak or reduced against the parent protein; the word gives no strength.

The chains behind the UniProt entries cited, without tags or fusion partners.
UniProt O96017: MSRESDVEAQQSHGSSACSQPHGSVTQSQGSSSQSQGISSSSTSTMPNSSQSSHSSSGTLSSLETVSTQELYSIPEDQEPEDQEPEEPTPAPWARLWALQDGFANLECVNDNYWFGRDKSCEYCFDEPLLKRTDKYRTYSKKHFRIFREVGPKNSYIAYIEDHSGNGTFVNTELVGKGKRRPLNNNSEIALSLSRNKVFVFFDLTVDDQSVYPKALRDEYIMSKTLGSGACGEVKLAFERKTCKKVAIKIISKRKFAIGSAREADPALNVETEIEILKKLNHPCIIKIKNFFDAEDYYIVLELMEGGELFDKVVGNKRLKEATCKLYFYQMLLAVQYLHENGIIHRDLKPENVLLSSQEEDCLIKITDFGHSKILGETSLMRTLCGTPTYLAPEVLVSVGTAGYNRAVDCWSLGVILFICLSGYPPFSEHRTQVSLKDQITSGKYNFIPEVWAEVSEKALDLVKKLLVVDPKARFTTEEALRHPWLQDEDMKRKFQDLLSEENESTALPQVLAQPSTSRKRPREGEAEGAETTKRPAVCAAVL

Assay [1] addresses T1, phosphorylated SMC1 (S957) (human (endogenous in CIN 612 and HFK)) (UniProt Q14683).
T1 sequence (chain, phosphoserine at 957): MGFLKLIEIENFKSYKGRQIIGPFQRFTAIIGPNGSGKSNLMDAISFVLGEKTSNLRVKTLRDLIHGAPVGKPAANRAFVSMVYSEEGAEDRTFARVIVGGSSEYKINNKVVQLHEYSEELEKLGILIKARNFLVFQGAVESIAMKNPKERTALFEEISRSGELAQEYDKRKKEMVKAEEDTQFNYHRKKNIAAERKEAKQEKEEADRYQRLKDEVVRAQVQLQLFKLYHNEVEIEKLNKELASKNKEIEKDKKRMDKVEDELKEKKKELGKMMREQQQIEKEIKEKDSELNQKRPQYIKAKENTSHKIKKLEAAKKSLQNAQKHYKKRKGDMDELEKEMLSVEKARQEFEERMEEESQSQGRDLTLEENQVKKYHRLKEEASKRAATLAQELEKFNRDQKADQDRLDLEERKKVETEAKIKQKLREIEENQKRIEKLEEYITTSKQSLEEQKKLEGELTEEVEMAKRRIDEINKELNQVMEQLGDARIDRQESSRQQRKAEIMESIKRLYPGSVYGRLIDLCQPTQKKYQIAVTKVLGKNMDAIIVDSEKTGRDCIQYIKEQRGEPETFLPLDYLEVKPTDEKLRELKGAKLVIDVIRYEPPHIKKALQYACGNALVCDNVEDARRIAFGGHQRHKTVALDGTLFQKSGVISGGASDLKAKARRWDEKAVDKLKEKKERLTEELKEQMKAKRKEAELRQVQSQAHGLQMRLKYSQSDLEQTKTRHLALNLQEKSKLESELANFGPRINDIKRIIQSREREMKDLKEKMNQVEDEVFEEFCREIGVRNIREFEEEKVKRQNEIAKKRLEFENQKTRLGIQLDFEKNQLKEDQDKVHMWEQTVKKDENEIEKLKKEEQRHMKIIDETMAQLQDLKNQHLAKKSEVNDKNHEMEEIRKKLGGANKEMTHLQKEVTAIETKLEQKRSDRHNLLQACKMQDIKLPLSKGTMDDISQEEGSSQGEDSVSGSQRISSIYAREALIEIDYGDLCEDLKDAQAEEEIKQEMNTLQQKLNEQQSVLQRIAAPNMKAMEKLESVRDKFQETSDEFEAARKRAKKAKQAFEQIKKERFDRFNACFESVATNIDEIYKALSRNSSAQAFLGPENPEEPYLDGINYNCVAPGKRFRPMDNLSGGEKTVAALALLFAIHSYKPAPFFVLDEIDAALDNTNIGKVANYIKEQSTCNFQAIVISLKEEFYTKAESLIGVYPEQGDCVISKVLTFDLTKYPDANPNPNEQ
Nature of the assay: proximity ligation; on-slide co-immunoprecipitation (OLINK DuoLink) in HPV 31 positive CIN 612 cells in monolayer culture, fixed with 4% methanol-free formaldehyde, permeabilized with 0.1% Triton X-100; red nuclear foci indicate complex formation.

Assay [2] concerns the target T1, phosphorylated SMC1 (S957) (human (endogenous in CIN 612 and HFK)). Nature of the assay: condition: only in normal keratinocytes (HFK) without HPV; proximity ligation; on-slide co-immunoprecipitation (OLINK DuoLink) in normal human foreskin keratinocytes (HFK, HPV negative), same antibodies, fixed with 4% methanol-free formaldehyde, permeabilized with 0.1% Triton X-100.

On to “phosphorylated CHK2 (Thr-68) (from UniProt O96017 1-543)”, for which the binding entry in assay [1] is listed as “binds”; in assay [2], “no binding”.

The record behind these values is PMC4395367.
